For at least one compound, name, drawing or mass did not settle the structure.
How the values were obtained:
[1] = test system: NSCLC; assay: Phase 1 clinical study: efficacy (tumor overall response); type: in vivo, human; settings: Per-Protocol population; one at 200 mg, two at 600 mg
Experimental: A first-in-human phase 1 study was performed to determine the MTD and to evaluate PK, safety/tolerability and efficacy profiles of exemplary Compound 1 in NSCLC patients who are refractory to conventional treatment modalities. This open-label, non-randomized, dose-escalation study, which completed in February 2013, enrolled a total of 13 patients; seven males and six females, all of whom were Asian. A total of five patients were enrolled an accelerated titration phase (one patient each in the 50, 100, 200, 300, and 450 mg dose groups) and eight patients were enrolled in a standard titration phase (three patients in the 450 mg dose group and five patients in the 600 mg dose group).
The PPS was defined in the Phase 1 study as all patients who completed at least three cycles of treatment with proper imaging assessment (RECIST v.1.1).

[2] = test system: isoprenyltransferase; assay: Isoprenyltransferase activity; type: biochemical
[3] = test system: lung cancer cells; assay: Autophagy markers in lung cancer cells; type: cell-based
[4] = test system: A549 subcutaneous xenografts; assay: A549 subcutaneous xenograft study; type: in vivo, non-obese diabetes/severe combined immunodeficiency mice; settings: 2 weeks of oral 30 and 60 mg/kg

COC1=C(OC)C(O)C(C/C=C(\C)CC/C=C(\C)CCC=C(C)C)C(C)C1=O (stereo not drawn) [Compound 1, 4-hydroxy-2,3-dimethoxy-6-methyl-5-(3,7,11-trimethyldodeca-2,6,10-trienyl)cyclohex-2-enone]
patients with stable disease, tumor overall response at end of treatment [1]: three | isoprenyltransferase activity [2]: inhibited | PC3 puncta formation [3]: increased | expression level of beclin-1 [3]: three-fold | LC3-II/I ([3]; P<0.01): increased | tumor growth [4]: tumor growth suppression

Reference: patent publication US11786485B2, “Methods and compositions for treating advanced stage non-small cell lung cancer” (Golden Biotechnology Corporation, priority 2016, dated 2023)
